According to PubChem BioAssay AID2551 (National Center for Advancing Translational Sciences (NCATS), 2010):
The campaign covered roughly 310,000 compounds. About 17,000 (5.5%) were called active. The shares of active, inactive and inconclusive entries below differ from those in the screen. The call rests on the fitted dose curve; in most records, active means well fitted inhibition curve with a large enough effect; inconclusive means small, poorly fitted or top-dose-only effect, or effect the other way; inactive means no such curve, though single readings can be large or run the other way. Where the call is inconclusive, the potency comes from a doubtful curve fit.

Chains of the proteins cited; added tags and fusions are not shown. Lines headed by an entry give the natural chain unless they say otherwise; changes in a name come on top.
UniProt P51450: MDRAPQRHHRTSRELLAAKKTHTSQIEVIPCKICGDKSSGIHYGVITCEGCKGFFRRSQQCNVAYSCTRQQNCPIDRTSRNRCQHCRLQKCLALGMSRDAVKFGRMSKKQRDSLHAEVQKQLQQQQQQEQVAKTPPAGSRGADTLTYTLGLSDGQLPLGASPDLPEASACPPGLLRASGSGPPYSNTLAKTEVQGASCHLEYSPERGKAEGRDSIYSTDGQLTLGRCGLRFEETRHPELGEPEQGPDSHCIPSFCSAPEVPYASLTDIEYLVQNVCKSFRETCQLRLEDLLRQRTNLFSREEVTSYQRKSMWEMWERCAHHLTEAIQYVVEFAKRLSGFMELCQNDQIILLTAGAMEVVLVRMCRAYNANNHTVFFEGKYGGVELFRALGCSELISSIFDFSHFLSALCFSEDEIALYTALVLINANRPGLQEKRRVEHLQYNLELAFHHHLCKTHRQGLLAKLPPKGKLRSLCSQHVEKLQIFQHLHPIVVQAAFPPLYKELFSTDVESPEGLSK

What follows are molecules tested against Nuclear receptor ROR-gamma (Mus musculus) (UniProt P51450) (assay: qHTS for inhibitors of ROR gamma transcriptional activity). Details: Drosophila S2 Gal4-RORgamma UAS-luciferase reporter, 20 h; activity change, negative = inhibition: at 53.6 µM (top of the series).
Method in brief: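 A Gal4/UAS one-hybrid system in insect cells: metallothionein-promoter Gal4–ROR gamma fusion plus Photinus luciferase reporter. Copper sulfate 700 uM final, 20 hr ambient incubation, luminescent detection after 10 min with reagent.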
Further: nearly all actives have a fitted effect of over 60% in size.
On the % scale 0 is the no-effect control and ±100 the full control effect; potency means the concentration at half of the fitted maximal effect.

| SMILES | Potency | activity change, negative = inhibition |
| --- | --- | --- |
| Oc1cccc2ccc(/C=C/c3ccccc3Cl)nc12 | active: 3.98 µM |  |
| Cc1ccc(C)c2c1cc(C)c1nnc(SCc3ccccn3)n12 | inconclusive: 4.47 µM [inhibitor, full curve] |  |
| CC(C)C(=O)O/N=C(\N)c1ccc(Oc2ccc(Cl)cc2)c([N+](=O)[O-])c1 | inconclusive: 31.6 µM [activator, single point] |  |
| CC(c1ccccc1)n1cc(C(=O)NCC2CCCO2)nn1 (centres undefined) | inconclusive: 5.01 µM [inhibitor, full curve, poor fit] |  |
| Cc1cc(C2C(C#N)=C(N)Oc3n[nH]c(C)c32)c(C)s1 (centres undefined) | active: 10 µM |  |
| COc1cccc(/C=N/NC(=O)c2cc3c(OC)cccc3[nH]2)c1O | active: 0.794 µM |  |
| Cc1ccc(C(=O)N2C(CC(=O)Nc3ccc(Cl)cc3)C(=O)NC3CCCCC32)cc1 (centres undefined) |  | inactive: -16.2% |
| Cc1noc(/C=C/N(C)C)c1S(=O)(=O)N1CCCC(C(=O)Nc2ccc(F)cc2F)C1 (centres undefined) |  | inactive: 10.6% |
| COCCNC(=S)N1CCN(C/C=C/c2ccccc2)CC1 | inconclusive: 11.2 µM [activator, partial curve] |  |
| O=C(CSc1nc(-c2ccccc2)cs1)Nc1nccs1 | inconclusive: 20 µM [inhibitor, single point] |  |
| COc1ccccc1/C=C/C(=O)c1ccc(Cl)cc1 | inconclusive: 35.5 µM [inhibitor, single point] |  |
| CC1(C)CC(=O)C(C(c2ccc(F)cc2)C2C(=O)CC(C)(C)CC2=O)C(=O)C1 |  | inactive: -1.65% |
| COC(=O)c1ccc(/C=C2\N=C(SC)SC2=O)cc1 | inconclusive: 6.31 µM [inhibitor, single point] |  |
| Cc1nc2nc(Cc3ccccc3)[nH]n2c(=O)c1Cc1ccccc1 | inconclusive: 4.47 µM [activator, partial curve] |  |
| CCCCn1c(NC(=S)Nc2ccccc2)nc2ccccc21 | active: 1 µM |  |
| Cc1oc(-c2cccc3ccccc23)nc1CN1CCN(c2ncnc3ccccc23)CC1 | inconclusive: 35.5 µM [inhibitor, single point] |  |
| CCc1[nH]c(=O)[nH]c1C(C)S(=O)(=O)c1ccc(C)cc1 (centres undefined) | active: 14.1 µM |  |
| Cc1ccc(C(=O)CC(Nc2ccc(F)cc2)c2ccccc2)cc1 (centres undefined) | inconclusive: 15.8 µM [activator, partial curve] |  |
| CCC(CC)NC(=O)CON=C1c2ccccc2-c2ccccc21 |  | inactive: -27.7% |
| COc1cccc(/C=C/C(=O)Nc2ccc3c(c2)OCCO3)c1OC | active: 1.12 µM |  |
| O=C(Nc1ccc(N2CCCC2)cc1)c1ccc(Br)o1 |  | inactive: -0.0469% |
| C=CCNC1=C(Cl)C(=O)N(Cc2ccccc2)C1=O |  | inactive: 8.91% |
| CCOC(=O)NC(=O)CSc1ccc2ccccc2n1 | inconclusive: 31.6 µM [activator, single point] |  |
| Cc1ccccc1N=CC1=C(O)c2ccccc2C1=O | active: 0.199 µM |  |
| O=C(CNC(=O)c1ccccc1)N=Nc1c(O)[nH]c2ccc(Br)cc12 |  | inactive: -40.6% |

| SMILES | Potency | activity change, negative = inhibition |
| --- | --- | --- |
| Cc1ccccc1-n1c(=O)cc(N2CCc3ccccc32)[nH]c1=O | inconclusive: 35.5 µM [activator, single point] |  |
| COc1cccc(-c2ccc3ncnc(NCc4ccc(OC)cc4OC)c3c2)c1 |  | inactive: 1.95% |
| COc1ccc(C(=O)NC(=S)N2CCN(c3ccc([N+](=O)[O-])cc3)CC2)cc1 | active: 0.631 µM |  |
| Nc1c2c(nc3sc4c(c13)CCCC4)-c1ccccc1CC2 | inconclusive: 8.91 µM [inhibitor, partial curve, poor fit] |  |
| CC(C)(C)OC(=O)CNC(=O)c1nc[nH]c1C(=O)NCc1ccccc1 | active: 7.08 µM |  |
| COc1cc(OC)cc(C(=O)NCCN2C(=O)S/C(=C\c3cccs3)C2=O)c1 | inconclusive: 0.141 µM [activator, partial curve, poor fit] |  |
| COc1ccc(OCCSc2nc3nc(C)cc(C)n3n2)cc1 | inconclusive: 35.5 µM [activator, single point] |  |
| Cc1cc(C)nc(N/N=C/c2cccc(Cl)c2)n1 | active: 11.2 µM |  |
| O=C(N/N=C/c1cccnc1)c1cc(-c2ccccc2OCc2ccccc2)n[nH]1 |  | inactive: -11.6% |
| COc1cc(SC)ccc1C(=O)Nc1ccc(C)cc1 | inconclusive: 11.2 µM [inhibitor, single point] |  |
| CN1CCCN=C1COC(=O)C(O)(c1ccccc1)C1CCCCC1 (centres undefined) | inactive |  |
| Cc1ccc(CC(=O)N2CCN(c3cccc(C(F)(F)F)c3)CC2)cc1 | inconclusive: 10 µM [activator, partial curve] |  |
| CCN(c1ccccc1)S(=O)(=O)c1ccc2c(c1)CC(C)N2C(=O)C1CC1 (centres undefined) | inconclusive: 17.8 µM [inhibitor, single point] |  |
| c1ccc(-c2csc(Nc3ccccn3)n2)cc1 | inconclusive: 12.6 µM [inhibitor, single point] |  |
| COc1cc(/C=C2\S/C(=N/S(=O)(=O)c3ccccc3)NC2=O)c([N+](=O)[O-])cc1OC | inconclusive: 35.5 µM [activator, single point] |  |
| Cc1ccc(OCCN2C(=O)C(=O)c3cccc(C)c32)cc1 |  | inactive: -17.6% |
| CCN(CC)S(=O)(=O)c1cc(OC)ccc1N=Nc1ccc(O)c2ncccc12 | active: 1.26 µM |  |
| COc1cccc(CNCC(O)(c2ccc(Cl)cc2)c2ccc(Cl)cc2)c1 | inconclusive: 35.5 µM [inhibitor, single point] |  |
| CC(C)(C)C(=O)NCCCNc1ccc([N+](=O)[O-])cc1 | inconclusive: 17.8 µM [activator, partial curve] |  |
| COC(=O)NNC(=O)c1ccc(Cl)cc1Cl |  | inactive: -6.7% |
| CN(C)NC(=S)Nc1ccc(Cl)cc1 | inconclusive: 3.55 µM [inhibitor, single point] |  |
| CN(C)S(=O)(=O)c1cccc(NC(=O)c2cccc(NS(=O)(=O)c3ccccc3)c2)c1 | inconclusive: 17.8 µM [activator, partial curve] |  |
| COCCOC(=O)N/C=C\c1nc2ccccc2c(=O)[nH]1 |  | inactive: 17% |
| N#Cc1c(-c2ccccc2)ccn(Cc2ccc(Cl)cc2)c1=O | inconclusive: 11.2 µM [activator, partial curve] |  |

Look-ups from the list.
For Potency, N#Cc1c(-c2ccccc2)ccn(Cc2ccc(Cl)cc2)c1=O shows inconclusive: 11.2 µM [activator, partial curve]
For Potency, COc1cc(/C=C2\S/C(=N/S(=O)(=O)c3ccccc3)NC2=O)c([N+](=O)[O-])cc1OC shows inconclusive: 35.5 µM [activator, single point]
For Potency, CN(C)S(=O)(=O)c1cccc(NC(=O)c2cccc(NS(=O)(=O)c3ccccc3)c2)c1 shows inconclusive: 17.8 µM [activator, partial curve]
